The list shows a part of the results.
Columns and labels:
Assay in all cases: log2 fold change, soluble protein after heating vs DMSO (PISA); higher = thermal stabilisation; K562 lysate, 10 uM; active = over 0.2 and 3.5 SD of the protein, either way, in both replicates (recomputed)
[1] = compound: CN1CC[C@H](c2c(O)cc(O)c3c(=O)cc(-c4ccccc4Cl)oc23)[C@H](O)C1 [alvocidib]
Summary of the method: (§1)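 A 30 min treatment with 10 μM compound was applied to crude K562 extract at 1 mg/mL protein in PBS pH 7.4 with 1 mM MgCl2. Heating for 3 min spanned 48°C-58°C, after which aliquots were pooled, adjusted to 0.5% NP-40 at 4°C and spun at 21,000xg for 90 min. TMTpro 16plex LC-MS/MS of the supernatant, with channel sums equalised, gave values recorded as log-two fold change in thermal stability against solvent controls, from duplicates.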

Amino acid sequences for entries named in this document (tags omitted). A change or cut given only in a name is not applied to a line headed by its entry.
UniProt Q9Y4C8: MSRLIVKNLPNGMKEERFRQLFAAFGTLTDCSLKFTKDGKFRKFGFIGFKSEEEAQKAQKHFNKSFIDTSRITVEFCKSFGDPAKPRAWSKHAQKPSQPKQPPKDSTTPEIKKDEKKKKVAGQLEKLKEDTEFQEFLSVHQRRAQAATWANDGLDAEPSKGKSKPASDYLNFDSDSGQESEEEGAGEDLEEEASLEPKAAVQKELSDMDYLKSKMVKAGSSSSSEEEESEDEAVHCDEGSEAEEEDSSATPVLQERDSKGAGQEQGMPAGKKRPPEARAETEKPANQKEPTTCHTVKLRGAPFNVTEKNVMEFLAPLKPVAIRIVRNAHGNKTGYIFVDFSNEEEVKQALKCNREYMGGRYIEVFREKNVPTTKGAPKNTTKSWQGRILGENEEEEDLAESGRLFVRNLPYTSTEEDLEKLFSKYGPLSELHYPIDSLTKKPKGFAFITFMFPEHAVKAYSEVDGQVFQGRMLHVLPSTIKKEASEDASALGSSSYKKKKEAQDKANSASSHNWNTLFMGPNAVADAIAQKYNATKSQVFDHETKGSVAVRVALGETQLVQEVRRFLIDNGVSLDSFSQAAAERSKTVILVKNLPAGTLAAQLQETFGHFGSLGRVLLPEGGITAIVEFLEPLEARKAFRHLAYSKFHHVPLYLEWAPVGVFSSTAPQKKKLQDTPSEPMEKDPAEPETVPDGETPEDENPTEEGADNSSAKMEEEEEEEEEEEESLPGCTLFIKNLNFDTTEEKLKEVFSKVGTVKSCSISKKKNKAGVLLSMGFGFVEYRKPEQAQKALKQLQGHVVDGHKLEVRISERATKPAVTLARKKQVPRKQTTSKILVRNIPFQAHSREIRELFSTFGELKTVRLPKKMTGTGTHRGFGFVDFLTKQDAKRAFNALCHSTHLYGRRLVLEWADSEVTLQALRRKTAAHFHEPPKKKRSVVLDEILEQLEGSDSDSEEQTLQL
UniProt Q9HBH5: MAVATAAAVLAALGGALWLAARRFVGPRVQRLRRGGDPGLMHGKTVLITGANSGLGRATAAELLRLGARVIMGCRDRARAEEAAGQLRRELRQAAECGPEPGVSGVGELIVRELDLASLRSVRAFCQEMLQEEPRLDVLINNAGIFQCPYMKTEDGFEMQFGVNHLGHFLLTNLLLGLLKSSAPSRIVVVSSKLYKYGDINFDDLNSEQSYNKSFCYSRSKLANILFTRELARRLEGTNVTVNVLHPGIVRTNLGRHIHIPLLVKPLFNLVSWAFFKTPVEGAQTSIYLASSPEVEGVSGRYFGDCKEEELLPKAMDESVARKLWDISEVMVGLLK
UniProt Q09028, whole entry, looked up: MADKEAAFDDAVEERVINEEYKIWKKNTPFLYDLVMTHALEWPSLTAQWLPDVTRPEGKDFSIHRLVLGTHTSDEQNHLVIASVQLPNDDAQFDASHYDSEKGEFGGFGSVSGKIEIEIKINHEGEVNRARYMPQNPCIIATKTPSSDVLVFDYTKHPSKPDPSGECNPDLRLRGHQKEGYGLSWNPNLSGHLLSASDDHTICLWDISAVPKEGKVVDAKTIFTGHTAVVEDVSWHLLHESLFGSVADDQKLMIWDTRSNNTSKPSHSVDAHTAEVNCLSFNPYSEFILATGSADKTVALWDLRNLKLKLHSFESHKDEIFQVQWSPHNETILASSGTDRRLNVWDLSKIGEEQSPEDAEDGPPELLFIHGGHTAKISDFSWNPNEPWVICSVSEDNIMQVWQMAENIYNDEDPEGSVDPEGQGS
UniProt Q96PK6: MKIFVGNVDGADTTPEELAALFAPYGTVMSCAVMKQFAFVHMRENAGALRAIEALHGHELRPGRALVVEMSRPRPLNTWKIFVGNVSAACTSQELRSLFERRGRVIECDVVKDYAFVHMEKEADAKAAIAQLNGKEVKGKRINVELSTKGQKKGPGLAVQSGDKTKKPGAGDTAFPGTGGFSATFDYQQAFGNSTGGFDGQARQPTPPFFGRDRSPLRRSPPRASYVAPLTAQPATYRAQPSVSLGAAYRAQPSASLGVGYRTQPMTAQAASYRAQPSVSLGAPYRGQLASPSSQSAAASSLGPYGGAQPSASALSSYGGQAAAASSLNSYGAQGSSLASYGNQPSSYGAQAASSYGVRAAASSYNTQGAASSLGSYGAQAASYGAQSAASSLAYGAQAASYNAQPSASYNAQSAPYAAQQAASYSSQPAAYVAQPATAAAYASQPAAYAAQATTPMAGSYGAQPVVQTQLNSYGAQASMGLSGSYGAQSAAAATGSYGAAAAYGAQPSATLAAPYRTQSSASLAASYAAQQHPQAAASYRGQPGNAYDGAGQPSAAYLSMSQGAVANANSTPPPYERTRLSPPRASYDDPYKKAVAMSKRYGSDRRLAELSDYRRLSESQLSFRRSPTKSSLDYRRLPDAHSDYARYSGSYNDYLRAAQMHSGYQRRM
UniProt Q8WZ73: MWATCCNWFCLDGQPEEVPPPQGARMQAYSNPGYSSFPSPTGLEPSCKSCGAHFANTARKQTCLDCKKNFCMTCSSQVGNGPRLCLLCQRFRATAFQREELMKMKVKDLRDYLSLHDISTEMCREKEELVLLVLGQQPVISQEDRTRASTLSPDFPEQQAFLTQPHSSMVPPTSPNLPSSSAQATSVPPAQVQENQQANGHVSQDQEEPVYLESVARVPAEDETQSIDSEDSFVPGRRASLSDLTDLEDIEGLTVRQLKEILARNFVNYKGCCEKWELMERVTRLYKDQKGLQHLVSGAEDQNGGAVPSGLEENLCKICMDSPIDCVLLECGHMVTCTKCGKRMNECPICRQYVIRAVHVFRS
UniProt Q99708: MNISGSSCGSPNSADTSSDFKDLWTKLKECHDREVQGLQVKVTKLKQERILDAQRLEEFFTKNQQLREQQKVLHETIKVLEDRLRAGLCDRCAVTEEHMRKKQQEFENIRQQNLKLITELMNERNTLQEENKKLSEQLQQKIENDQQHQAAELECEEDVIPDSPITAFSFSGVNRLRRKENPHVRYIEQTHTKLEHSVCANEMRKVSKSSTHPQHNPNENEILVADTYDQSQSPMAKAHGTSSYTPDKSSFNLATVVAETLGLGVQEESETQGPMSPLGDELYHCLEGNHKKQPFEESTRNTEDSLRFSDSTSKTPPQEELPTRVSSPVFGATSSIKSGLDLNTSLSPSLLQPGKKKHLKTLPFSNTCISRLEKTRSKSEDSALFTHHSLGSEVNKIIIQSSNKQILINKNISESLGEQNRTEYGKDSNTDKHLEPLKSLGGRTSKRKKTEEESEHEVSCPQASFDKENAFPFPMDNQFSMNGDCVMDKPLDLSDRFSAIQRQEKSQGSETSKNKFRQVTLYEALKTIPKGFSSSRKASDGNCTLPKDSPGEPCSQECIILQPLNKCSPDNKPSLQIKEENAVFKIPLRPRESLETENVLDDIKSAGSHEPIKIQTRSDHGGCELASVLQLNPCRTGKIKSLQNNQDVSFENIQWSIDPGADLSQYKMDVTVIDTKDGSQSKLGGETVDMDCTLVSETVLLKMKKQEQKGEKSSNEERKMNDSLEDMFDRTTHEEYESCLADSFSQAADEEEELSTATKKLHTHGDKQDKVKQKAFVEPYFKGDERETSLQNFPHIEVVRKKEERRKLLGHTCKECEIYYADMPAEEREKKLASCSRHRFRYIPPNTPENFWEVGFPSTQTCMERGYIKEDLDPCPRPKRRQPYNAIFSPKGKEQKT
UniProt Q14257: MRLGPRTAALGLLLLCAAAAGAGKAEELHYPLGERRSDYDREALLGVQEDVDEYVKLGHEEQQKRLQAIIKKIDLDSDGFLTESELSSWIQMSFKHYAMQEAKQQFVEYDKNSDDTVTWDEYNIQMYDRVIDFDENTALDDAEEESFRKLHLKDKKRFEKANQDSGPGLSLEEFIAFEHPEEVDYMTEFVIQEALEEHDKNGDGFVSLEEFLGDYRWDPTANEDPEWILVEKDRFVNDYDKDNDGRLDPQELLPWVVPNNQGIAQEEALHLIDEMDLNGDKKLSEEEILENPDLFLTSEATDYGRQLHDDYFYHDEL
UniProt O00287: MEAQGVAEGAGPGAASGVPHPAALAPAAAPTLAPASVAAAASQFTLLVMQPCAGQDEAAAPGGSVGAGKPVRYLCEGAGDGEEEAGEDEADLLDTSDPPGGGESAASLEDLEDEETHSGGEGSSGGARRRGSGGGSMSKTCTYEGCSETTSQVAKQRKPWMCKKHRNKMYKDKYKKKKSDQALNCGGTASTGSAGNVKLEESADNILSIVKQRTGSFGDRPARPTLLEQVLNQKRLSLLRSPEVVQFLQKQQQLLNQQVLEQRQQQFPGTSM
UniProt Q9P2R6: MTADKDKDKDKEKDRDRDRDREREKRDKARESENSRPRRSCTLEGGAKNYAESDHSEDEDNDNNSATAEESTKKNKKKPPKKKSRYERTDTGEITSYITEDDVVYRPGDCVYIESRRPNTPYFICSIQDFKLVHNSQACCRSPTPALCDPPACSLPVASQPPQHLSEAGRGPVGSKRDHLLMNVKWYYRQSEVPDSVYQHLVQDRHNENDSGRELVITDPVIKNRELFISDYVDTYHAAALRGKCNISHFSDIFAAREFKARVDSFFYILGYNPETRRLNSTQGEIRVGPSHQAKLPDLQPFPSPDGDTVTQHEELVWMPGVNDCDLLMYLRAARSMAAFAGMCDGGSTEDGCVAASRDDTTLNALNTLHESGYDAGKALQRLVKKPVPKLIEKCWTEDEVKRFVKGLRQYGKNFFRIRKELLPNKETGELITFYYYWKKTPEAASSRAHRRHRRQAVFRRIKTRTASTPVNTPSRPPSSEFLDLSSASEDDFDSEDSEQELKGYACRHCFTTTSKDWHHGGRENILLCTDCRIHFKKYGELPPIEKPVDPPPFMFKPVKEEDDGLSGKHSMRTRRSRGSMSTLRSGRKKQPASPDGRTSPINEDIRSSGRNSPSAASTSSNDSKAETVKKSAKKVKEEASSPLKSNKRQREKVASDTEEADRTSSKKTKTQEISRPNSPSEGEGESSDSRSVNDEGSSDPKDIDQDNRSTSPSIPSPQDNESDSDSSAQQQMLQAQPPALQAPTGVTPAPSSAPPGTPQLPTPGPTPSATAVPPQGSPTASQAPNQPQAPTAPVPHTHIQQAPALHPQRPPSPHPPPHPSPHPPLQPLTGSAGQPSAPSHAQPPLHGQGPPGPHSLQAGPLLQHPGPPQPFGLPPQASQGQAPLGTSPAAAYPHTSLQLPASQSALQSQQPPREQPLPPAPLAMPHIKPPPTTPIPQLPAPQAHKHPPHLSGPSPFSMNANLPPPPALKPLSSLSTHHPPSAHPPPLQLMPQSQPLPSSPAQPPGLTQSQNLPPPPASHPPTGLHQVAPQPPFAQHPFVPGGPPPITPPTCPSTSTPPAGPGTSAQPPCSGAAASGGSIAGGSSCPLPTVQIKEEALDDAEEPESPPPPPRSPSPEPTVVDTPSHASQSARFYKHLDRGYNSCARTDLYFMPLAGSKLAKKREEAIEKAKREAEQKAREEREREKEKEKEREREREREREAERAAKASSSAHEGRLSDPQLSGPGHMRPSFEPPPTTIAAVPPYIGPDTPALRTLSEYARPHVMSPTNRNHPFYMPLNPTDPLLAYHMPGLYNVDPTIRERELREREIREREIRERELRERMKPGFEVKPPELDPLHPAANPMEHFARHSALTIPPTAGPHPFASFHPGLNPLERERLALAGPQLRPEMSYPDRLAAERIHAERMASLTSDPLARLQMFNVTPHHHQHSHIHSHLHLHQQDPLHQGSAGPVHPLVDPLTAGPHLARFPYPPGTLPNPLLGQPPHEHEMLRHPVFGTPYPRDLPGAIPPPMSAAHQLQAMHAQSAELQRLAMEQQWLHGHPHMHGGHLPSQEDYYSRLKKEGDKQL
UniProt Q00765: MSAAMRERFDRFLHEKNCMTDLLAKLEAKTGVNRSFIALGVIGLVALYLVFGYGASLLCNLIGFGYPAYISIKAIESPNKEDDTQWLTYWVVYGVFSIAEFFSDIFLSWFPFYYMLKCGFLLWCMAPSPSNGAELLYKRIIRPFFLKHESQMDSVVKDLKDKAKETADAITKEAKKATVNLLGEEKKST
UniProt Q15291, whole entry, looked up: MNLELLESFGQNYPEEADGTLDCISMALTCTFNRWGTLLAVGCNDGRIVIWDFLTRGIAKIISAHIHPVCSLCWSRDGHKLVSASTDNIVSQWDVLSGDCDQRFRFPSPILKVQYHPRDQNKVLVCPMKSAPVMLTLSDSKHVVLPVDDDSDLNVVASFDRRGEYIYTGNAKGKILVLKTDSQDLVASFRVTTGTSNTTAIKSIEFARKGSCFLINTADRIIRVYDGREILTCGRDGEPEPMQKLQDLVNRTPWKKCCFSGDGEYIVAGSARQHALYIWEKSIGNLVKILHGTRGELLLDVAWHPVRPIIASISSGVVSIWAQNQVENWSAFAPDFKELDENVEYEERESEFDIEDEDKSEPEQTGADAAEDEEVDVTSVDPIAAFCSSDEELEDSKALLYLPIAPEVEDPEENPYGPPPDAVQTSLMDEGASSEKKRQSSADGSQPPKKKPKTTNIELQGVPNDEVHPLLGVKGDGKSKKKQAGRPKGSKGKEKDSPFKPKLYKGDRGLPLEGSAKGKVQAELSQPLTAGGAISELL

[2] = compound: CN1CCc2c(c3ccccc3n2Cc2ccc(C(=O)NO)cc2)C1 [Tubastatin A]
Summary of the method: as §1

[3] = compound: CNC(=O)C1=CC=CC=C1NC2=NC(=NC=C2Cl)NC3=C(C=C(C=C3)N4CCOCC4)OC
Summary of the method: as §1

[4] = compound: CNC(=O)c1ccc(Nc2ncc(C(F)(F)F)c(NCc3nccnc3N(C)S(C)(=O)=O)n2)cc1 [defactinib]
Summary of the method: as §1

[5] = compound: CNc1nc(-c2ccc3c(N)n[nH]c3c2)cc(N2C[C@@H](C(=O)NC3CCCCC3)CC[C@H]2C)n1
Summary of the method: as §1

[6] = compound: COC(=O)N[C@@H](C)CNc1nccc(-c2cn(C(C)C)nc2-c2cc(Cl)cc(NS(C)(=O)=O)c2F)n1 [encorafenib]
Summary of the method: as §1

[7] = compound: COC(=O)[C@H](CCSC)NC(=O)C1=C(C=C(C=C1)NC[C@H](CS)N)C2=CC=CC=C2
Summary of the method: as §1

[8] = compound: COc1cc(Nc2ncc3c(n2)-c2ccc(Cl)cc2C(c2c(F)cccc2OC)=NC3)ccc1C(=O)O [alisertib]
Summary of the method: as §1

[9] = compound: COc1cc2nc(-c3cc(F)ccc3O)nc(N[C@@H]3CNC[C@H]3C(C)(C)O)c2cc1OC
Summary of the method: as §1

[10] = compound: COc1cc2ncnc(Nc3ccc(F)c(Cl)c3)c2cc1OCCCN1CCOCC1 [gefitinib]
Summary of the method: as §1

[11] = compound: CS(=O)(=O)CCNCc1ccc(-c2ccc3ncnc(Nc4ccc(OCc5cccc(F)c5)c(Cl)c4)c3c2)o1 [lapatinib]
Summary of the method: as §1

[12] = compound: CS(=O)(=O)N1CCN(Cc2cc3nc(-c4cccc5[nH]ncc45)nc(N4CCOCC4)c3s2)CC1 [pictilisib]
Summary of the method: as §1

[13] = compound: C[C@@H](Oc1cc(-c2cnn(C3CCNCC3)c2)cnc1N)c1c(Cl)ccc(F)c1Cl [crizotinib]
Summary of the method: as §1

[14] = compound: C[C@H](C1=CC=C(C=C1)C(=O)NC2=C3C=CNC3=NC=C2)N
Summary of the method: as §1

[15] = compound: C[C@H](Nc1ncnc2nc[nH]c12)c1cc2cccc(Cl)c2c(=O)n1-c1ccccc1 [duvelisib]
Summary of the method: as §1

[16] = compound: Cc1cc(Nc2cc(CN3CCOCC3)c3nc(C)c(Cc4ccc(Cl)cc4F)n3n2)n[nH]1 [gandotinib]
Summary of the method: as §1

[17] = compound: Cc1cc(Nc2cc(N3CCN(C)CC3)nc(Sc3ccc(NC(=O)C4CC4)cc3)n2)n[nH]1 [tozasertib]
Summary of the method: as §1

[18] = compound: Cc1ccc(-n2nc(C(C)(C)C)cc2NC(=O)Nc2ccc(OCCN3CCOCC3)c3ccccc23)cc1 [doramapimod]
Summary of the method: as §1

[19] = compound: Cc1ccc(NC(=O)c2ccc(CN3CC[C@H](N(C)C)C3)c(C(F)(F)F)c2)cc1Nc1nccc(-c2cncnc2)n1 [bafetinib]
Summary of the method: as §1

[20] = compound: Cc1cccc(CC(=O)N2CCc3c2ccc(-c2cn(C)c4ncnc(N)c24)c3F)n1
Summary of the method: as §1

Row | Target | log2 fold change [1] | log2 fold change [2] | log2 fold change [3] | log2 fold change [4] | log2 fold change [5] | log2 fold change [6] | log2 fold change [7] | log2 fold change [8] | log2 fold change [9] | log2 fold change [10] | log2 fold change [11] | log2 fold change [12] | log2 fold change [13] | log2 fold change [14] | log2 fold change [15] | log2 fold change [16] | log2 fold change [17] | log2 fold change [18] | log2 fold change [19] | log2 fold change [20]
1 | RBM19 (UniProt Q9Y4C8) | inactive: -0.042 | inactive: 0.06 | inactive: -0.038 | inactive: 0.032 | inactive: 0.035 | inactive: -0.007 | inactive: 0.035 | inactive: 0.004 | inactive: 0.008 | inactive: 0.013 | inactive: -0.106 | inactive: -0.106 | inactive: 0.016 | inactive: -0.081 | inactive: -0.07 | inactive: 0.044 | inactive: 0.093 | inactive: -0.027 | inactive: -0.035 | inactive: 0.048
2 | RDH14 (UniProt Q9HBH5) | inactive: -0.001 | inactive: -0.033 | inactive: 0.088 | inactive: -0.044 | inactive: -0.123 | inactive: -0.028 | inactive: -0.199 | inactive: 0.07 | inactive: -0.043 | inactive: -0.07 | inactive: 0.082 | inactive: -0.028 | inactive: 0.009 | inactive: -0.191 | inactive: 0.002 | inactive: 0.176 | inactive: 0.043 | inactive: 0 | inactive: -0.005 | inactive: 0.198
3 | RCC2 (UniProt Q9P258) | inactive: 0.02 | inactive: 0.015 | inactive: -0.03 | inactive: -0.026 | inactive: 0.009 | inactive: -0.012 | inactive: -0.044 | inactive: 0.014 | inactive: -0.013 | inactive: -0.007 | inactive: -0.003 | inactive: 0.021 | inactive: -0.014 | inactive: -0.005 | inactive: 0.018 | inactive: -0.02 | inactive: 0.024 | inactive: -0.011 | inactive: 0.002 | inactive: -0.022
4 | RBBP4 (UniProt Q09028) | inactive: -0.023 | inactive: 0.055 | inactive: 0.013 | inactive: -0.05 | inactive: 0.05 | inactive: -0.008 | inactive: -0.029 | inactive: -0.009 | inactive: 0 | inactive: -0.084 | inactive: 0.007 | inactive: -0.013 | inactive: -0.003 | inactive: -0.102 | inactive: 0.006 | inactive: 0.078 | inactive: 0.029 | inactive: 0.032 | inactive: 0.036 | inactive: 0.023
5 | RFC1 (UniProt P35251) | inactive: -0.111 | inactive: -0.082 | inactive: -0.179 | inactive: -0.003 | inactive: 0.076 | inactive: 0.159 | inactive: 0.158 | inactive: 0.017 | inactive: 0.011 | inactive: 0.005 | inactive: 0.018 | inactive: -0.048 | inactive: -0.044 | inactive: -0.052 | inactive: 0.013 | inactive: 0.032 | inactive: -0.078 | inactive: 0.051 | inactive: -0.111 | inactive: 0.032
6 | RBM14 (UniProt Q96PK6) | inactive: -0.022 | inactive: -0.021 | inactive: 0.001 | inactive: 0.017 | inactive: -0.022 | inactive: 0.065 | inactive: 0.038 | inactive: 0.045 | inactive: -0.016 | inactive: -0.077 | inactive: -0.048 | inactive: -0.02 | inactive: 0.008 | inactive: -0.053 | inactive: 0.015 | inactive: 0.165 | inactive: 0.011 | inactive: 0.055 | inactive: 0.051 | inactive: 0.093
7 | RBM6 (UniProt P78332) | inactive: -0.084 | inactive: -0.135 | inactive: 0.009 | inactive: 0.029 | inactive: 0.018 | inactive: 0.023 | inactive: 0.001 | inactive: -0.031 | inactive: 0.101 | inactive: 0.015 | inactive: -0.108 | inactive: -0.009 | inactive: 0.045 | inactive: -0.005 | inactive: 0 | inactive: 0.091 | inactive: -0.052 | inactive: -0.017 | inactive: 0.034 | inactive: 0.083
8 | RFFL (UniProt Q8WZ73) | inactive: -0.01 | inactive: 0.159 | inactive: -0.007 | inactive: 0.112 | inactive: 0.097 | inactive: -0.002 | inactive: -0.103 | inactive: -0.067 | inactive: 0.197 | inactive: 0.037 | inactive: -0.052 | inactive: -0.088 | inactive: -0.031 | inactive: -0.038 | inactive: 0.061 | inactive: 0.01 | inactive: -0.062 | inactive: 0.021 | inactive: 0.009 | inactive: 0.104
9 | RBBP8 isoform 2 (UniProt Q99708) | inactive: 0.013 | inactive: 0.07 | inactive: 0.061 | inactive: -0.023 | inactive: 0.108 | inactive: -0.039 | inactive: -0.074 | inactive: -0.008 | inactive: 0.009 | inactive: -0.014 | inactive: -0.042 | inactive: 0.069 | inactive: -0.085 | inactive: 0.065 | inactive: 0.032 | inactive: -0.013 | inactive: 0.177 | inactive: 0.024 | inactive: -0.079 | inactive: 0.007
10 | RASSF5 (UniProt Q8WWW0) | inactive: 0.006 | inactive: 0.038 | inactive: 0.099 | inactive: 0.069 | inactive: -0.041 | inactive: -0.019 | inactive: -0.066 | inactive: -0.037 | inactive: 0.112 | inactive: -0.052 | inactive: -0.018 | inactive: -0.068 | inactive: 0.06 | inactive: -0.019 | inactive: 0.057 | inactive: 0.245 | inactive: 0.09 | inactive: -0.056 | inactive: 0.091 | inactive: 0.086
11 | RCN2 isoform 2 (UniProt Q14257) | inactive: 0.009 | inactive: -0.055 | inactive: 0.021 | inactive: 0 | inactive: -0.108 | inactive: -0.002 | inactive: -0.029 | inactive: -0.001 | inactive: 0.009 | inactive: -0.019 | inactive: 0.002 | inactive: 0.017 | inactive: 0.009 | inactive: 0.029 | inactive: 0.031 | inactive: 0.003 | inactive: 0.047 | inactive: -0.046 | inactive: -0.032 | inactive: -0.025
12 | RFXAP (UniProt O00287) | inactive: -0.12 | inactive: 0.013 | inactive: -0.012 | inactive: -0.08 | inactive: -0.01 | inactive: 0.011 | inactive: -0.013 | inactive: 0.071 | inactive: 0.142 | inactive: 0.061 | inactive: -0.061 | inactive: -0.064 | inactive: 0.036 | inactive: -0.073 | inactive: -0.05 | inactive: 0.152 | inactive: 0.097 | inactive: -0.024 | inactive: 0.066 | inactive: 0.057
13 | RERE (UniProt Q9P2R6) | inactive: -0.079 | inactive: -0.041 | inactive: 0.02 | inactive: 0.068 | inactive: -0.048 | inactive: 0.009 | inactive: 0.065 | inactive: -0.019 | inactive: 0.018 | inactive: -0.015 | inactive: 0.033 | inactive: -0.069 | inactive: 0.061 | inactive: -0.162 | inactive: 0.032 | inactive: 0.117 | inactive: -0.006 | inactive: 0.005 | inactive: -0.059 | inactive: 0.203
14 | REEP5 (UniProt Q00765) | inactive: -0.054 | inactive: -0.004 | inactive: -0.056 | inactive: 0.04 | inactive: 0.035 | inactive: 0.001 | active: 0.263 | inactive: -0.009 | inactive: 0.001 | inactive: -0.092 | inactive: -0.001 | inactive: -0.026 | inactive: 0.024 | inactive: -0.11 | inactive: 0.01 | inactive: 0.061 | inactive: -0.052 | inactive: -0.03 | inactive: -0.027 | inactive: 0.055
15 | RBM7 (UniProt Q9Y580) | inactive: 0.026 | inactive: -0.204 | inactive: 0.034 | inactive: 0.023 | inactive: -0.051 | inactive: 0.037 | inactive: 0.073 | inactive: -0.027 | inactive: 0.007 | inactive: -0.031 | inactive: -0.004 | inactive: -0.065 | inactive: -0.03 | inactive: 0.038 | inactive: -0.054 | inactive: -0.012 | inactive: 0.06 | inactive: -0.025 | inactive: 0.04 | inactive: -0.007
16 | RBBP5 (UniProt Q15291) | inactive: 0.003 | inactive: -0.012 | inactive: 0.018 | inactive: 0.003 | inactive: -0.036 | inactive: 0.009 | inactive: -0.083 | inactive: -0.027 | inactive: -0.004 | inactive: -0.008 | inactive: -0.01 | inactive: 0.004 | inactive: 0.016 | inactive: 0.033 | inactive: -0.041 | inactive: 0.015 | inactive: 0.002 | inactive: 0.017 | inactive: 0 | inactive: -0.014

Complete entries from above. Order of values: log2 fold change [1] | log2 fold change [2] | log2 fold change [3] | log2 fold change [4] | log2 fold change [5] | log2 fold change [6] | log2 fold change [7] | log2 fold change [8] | log2 fold change [9] | log2 fold change [10] | log2 fold change [11] | log2 fold change [12] | log2 fold change [13] | log2 fold change [14] | log2 fold change [15] | log2 fold change [16] | log2 fold change [17] | log2 fold change [18] | log2 fold change [19] | log2 fold change [20]
REEP5 (UniProt Q00765) is listed with inactive: -0.054 | inactive: -0.004 | inactive: -0.056 | inactive: 0.04 | inactive: 0.035 | inactive: 0.001 | active: 0.263 | inactive: -0.009 | inactive: 0.001 | inactive: -0.092 | inactive: -0.001 | inactive: -0.026 | inactive: 0.024 | inactive: -0.11 | inactive: 0.01 | inactive: 0.061 | inactive: -0.052 | inactive: -0.03 | inactive: -0.027 | inactive: 0.055
RFXAP (UniProt O00287) is listed with inactive: -0.12 | inactive: 0.013 | inactive: -0.012 | inactive: -0.08 | inactive: -0.01 | inactive: 0.011 | inactive: -0.013 | inactive: 0.071 | inactive: 0.142 | inactive: 0.061 | inactive: -0.061 | inactive: -0.064 | inactive: 0.036 | inactive: -0.073 | inactive: -0.05 | inactive: 0.152 | inactive: 0.097 | inactive: -0.024 | inactive: 0.066 | inactive: 0.057
